We go through six molecules from US20250223378A1 (MABCARE THERAPEUTICS, published 2025).

Assay [1] has as its target T1, PTK7 on the SK-OV-3 cell line (human ovarian cancer cells) (human) (UniProt Q13308).
T1 sequence (looked up): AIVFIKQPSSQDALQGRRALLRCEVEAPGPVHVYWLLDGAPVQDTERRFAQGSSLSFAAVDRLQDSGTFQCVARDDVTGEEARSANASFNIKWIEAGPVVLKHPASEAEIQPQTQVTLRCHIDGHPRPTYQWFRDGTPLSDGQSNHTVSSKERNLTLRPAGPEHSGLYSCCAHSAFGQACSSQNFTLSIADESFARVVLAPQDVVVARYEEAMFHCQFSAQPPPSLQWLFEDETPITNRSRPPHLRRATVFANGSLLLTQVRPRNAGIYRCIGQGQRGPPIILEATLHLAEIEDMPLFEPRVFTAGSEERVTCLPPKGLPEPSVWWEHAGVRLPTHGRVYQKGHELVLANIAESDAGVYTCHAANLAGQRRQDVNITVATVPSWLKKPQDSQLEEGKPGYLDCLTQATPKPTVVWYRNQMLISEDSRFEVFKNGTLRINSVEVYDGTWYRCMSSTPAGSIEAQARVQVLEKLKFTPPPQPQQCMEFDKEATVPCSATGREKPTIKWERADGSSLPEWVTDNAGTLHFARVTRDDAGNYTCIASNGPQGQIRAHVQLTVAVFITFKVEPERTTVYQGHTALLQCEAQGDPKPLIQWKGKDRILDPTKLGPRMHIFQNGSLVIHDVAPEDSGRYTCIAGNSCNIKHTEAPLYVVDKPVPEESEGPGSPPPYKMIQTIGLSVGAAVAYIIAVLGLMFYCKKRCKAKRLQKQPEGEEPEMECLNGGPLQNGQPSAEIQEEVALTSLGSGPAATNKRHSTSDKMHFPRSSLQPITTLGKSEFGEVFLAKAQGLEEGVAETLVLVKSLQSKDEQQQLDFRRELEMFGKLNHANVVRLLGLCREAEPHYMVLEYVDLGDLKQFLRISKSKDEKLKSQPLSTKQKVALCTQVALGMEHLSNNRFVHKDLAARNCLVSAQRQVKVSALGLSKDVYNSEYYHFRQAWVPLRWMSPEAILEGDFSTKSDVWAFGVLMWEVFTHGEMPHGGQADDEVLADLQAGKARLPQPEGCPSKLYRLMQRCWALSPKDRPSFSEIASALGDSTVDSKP
Briefly: flow cytometry on SK-OV-3 cells. Background: In flow cytometry, cells or beads pass a laser one at a time.

The target in assay [2] is monkey PTK7 protein (Catalog No. PT7-C52H3, Acrobiosystems) (monkey). Briefly: ELISA, PTK7 protein immobilized on the plate.

Results are given in words; binding and its absence hold for the method and conditions named. Some results given as binding are weak or reduced against the parent protein; the word gives no strength.

B1: humanized PTK7 antibody Hu13H3L3 (antibody, V domains shown)
VH: QVQLVQSGAEVKKPGASVKISCKGSGYTFTDYGMHWLKQAPGQGLEWIGVISPYYGDVNYNQKFQGRATMTVDKSISTAYMELSRLRSDDTAVYYCARGMGYWGQGTLVTVSS
VL: DVQITQSPSFLSASVGDRVTITCRASQSISKYLAWYQQKPGKAPKLLIYSGSTLQSGVPSRFSGSGSGTEFTLTISSLQPEDFAMYYCQQHNEYPWTFGQGTKVEIK
Regarding B1, the binding result in assay [1] is “binds”.

B2: humanized PTK7 antibody Hu13H2L3 (antibody, V domains shown)
VH: QVQLVQSGAEVKKPGASVKVSCKGSGYTFTDYGMHWLRQAPGQGLEWMGVISPYYGDVNYNQKFQGRVTMTRDKSISTAYMELSRLRSDDTVVYYCARGMGYWGQGTLVTVSS
VL: DVQITQSPSFLSASVGDRVTITCRASQSISKYLAWYQQKPGKAPKLLIYSGSTLQSGVPSRFSGSGSGTEFTLTISSLQPEDFAMYYCQQHNEYPWTFGQGTKVEIK
In the case of B2, the binding entry in assay [1] was “binds”.

B3: humanized PTK7 antibody Hu13H3L0 (Ab13) (antibody, V domains shown)
VH: QVQLVQSGAEVKKPGASVKISCKGSGYTFTDYGMHWLKQAPGQGLEWIGVISPYYGDVNYNQKFQGRATMTVDKSISTAYMELSRLRSDDTAVYYCARGMGYWGQGTLVTVSS
VL: DIQLTQSPSFLSASVGDRVTITCRASQSISKYLAWYQQKPGKAPKLLIYSGSTLQSGVPSRFSGSGSGTEFTLTISSLQPEDFATYYCQQHNEYPWTFGQGTKVEIK
Consider B3, for which, in assay [1], the binding result is “binds”.

B4: humanized PTK7 antibody Hu13H3L5 (antibody, V domains shown)
VH: QVQLVQSGAEVKKPGASVKISCKGSGYTFTDYGMHWLKQAPGQGLEWIGVISPYYGDVNYNQKFQGRATMTVDKSISTAYMELSRLRSDDTAVYYCARGMGYWGQGTLVTVSS
VL: DVQITQSPSYLSASPGDRITITCRASQSISKYLAWYQQKPGKANKLLIYSGSTLQSGVPSRFSGSGSGTEFTLTISSLQPEDFAMYYCQQHNEYPWTFGQGTKVEIK
On to B4, for which the binding entry in assay [1] was “binds”.

B5: humanized PTK7 antibody Hu13H2L0 (antibody, V domains shown)
VH: QVQLVQSGAEVKKPGASVKVSCKGSGYTFTDYGMHWLRQAPGQGLEWMGVISPYYGDVNYNQKFQGRVTMTRDKSISTAYMELSRLRSDDTVVYYCARGMGYWGQGTLVTVSS
VL: DIQLTQSPSFLSASVGDRVTITCRASQSISKYLAWYQQKPGKAPKLLIYSGSTLQSGVPSRFSGSGSGTEFTLTISSLQPEDFATYYCQQHNEYPWTFGQGTKVEIK
For B5, the binding entry in assay [1] was “binds”.

B6: human-murine chimeric PTK7 antibody ch13 (antibody, V domains shown)
VH: QVQLQQSGAELVRPGVSVKISCKGSGYTFTDYGMHWLKQSHAKSLEWIGVISPYYGDVTYNQKFKGKATMTVDKSSSTAYMELARLTSEDSAIYYCARGMGYWGQGTSVTVSS
VL: DVQITQSPSYLAASPGETITINCRASQSISKYLAWYQEKPGKTNKLLIYSGSTLQSGIPSRFSGSGSGTDFTLTISSLEPEDFAMYYCQQHNEYPWTFGGGTKLEIK
For the molecule B6, the binding entry in assay [1] and in assay [2] was “binds” each time.
